This passage reports binding results from article PMC3904721, “The BEL1-like family of transcription factors in potato”.

Among the targets are NTH15 (tobacco) (UniProt O64415); NTH20 (tobacco) (UniProt Q9SXV3); NTH22 (tobacco) (UniProt Q9SXV4).
Common to all, as to assay: two-hybrid; Matchmaker system (Clontech), yeast strain pJ69-2A; StBELs in pACT-AD (GAL4 activation domain), KNOX proteins in pBridge (GAL4-binding domain); co-transformation, selection on -Leu/-Trp/-His/-Ade; lacZ induction quantified by β-galactosidase assay (Miller units), three replicate samples

No constants are given. Whether binding was seen depends on the method and setting. Binding calls can cover weak binding; strength is not graded here.

Regarding StBEL34 (from UniProt M1AE49), the binding entry with NTH15 (tobacco), with NTH20 (tobacco) and with NTH22 (tobacco) was “binds” throughout.
As to StBEL5 (from UniProt M1A5L2), the binding result in the experiment with NTH15 (tobacco), in the experiment with NTH20 (tobacco) and with NTH22 (tobacco) was “binds” in each case.
Regarding StBEL33 (from UniProt M1C8Y5), in the experiment with NTH15 (tobacco), the binding result was “binds”.
For the substance StBEL32 (from UniProt M0ZWL9), the binding entry with NTH15 (tobacco), with NTH20 (tobacco) and with NTH22 (tobacco) was “binds” throughout.
Turning to StBEL31 (from UniProt M0ZWL8), the binding result in the experiment with NTH15 (tobacco), with NTH20 (tobacco) and in the experiment with NTH22 (tobacco) was “binds” each time.
StBEL13 (from UniProt M1AMS7): the binding result in the experiment with NTH20 (tobacco) and with NTH22 (tobacco) was “binds” throughout.
Consider StBEL30 (from UniProt M1D1Z2), for which the binding result with NTH15 (tobacco), in the experiment with NTH20 (tobacco) and in the experiment with NTH22 (tobacco) was “binds” in each case.
For StBEL35 (from UniProt M1BNG6), the binding entry with NTH15 (tobacco), in the experiment with NTH20 (tobacco) and in the experiment with NTH22 (tobacco) was “binds” in each case.
